This experiment in a line: IkB Signaling. Particulars: ABC-DLBCL IkBa-CBG/CBR dual luciferase ratio (green luciferase fused to IkBa over red control in OCI-Ly3 lymphoma cells), 4 h. The method in brief: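 Curves were fitted separately to fusion (green), unfused (red) and ratio luminescence, then classed by r2, magnitude and activity. Cells: OCI-Ly3, 4 h compound plus doxycycline at 37C; 10 uM MG-132 defined full response.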
The mark [1] stands for this setting: measured here: control luc red channel unless noted.

Structures are written as SMILES. The list shows a part of the results. The main result of the screen is listed elsewhere. These columns were measured beside it and carry no call. Compounds called inactive in the main read-out are mostly missing here. The note in brackets gives the kind of curve behind each potency; many fits are weak.

Consider `CCOC(=O)c1cc(C)n(CC2CCC(C(=O)Nc3cc(OC)cc(OC)c3)CC2)c1C` (configuration not stated), for which the AC50 under setting [1] is 6.31 µM [falling, full curve].

Consider `COc1cc(NC(=O)CC(c2cccs2)N2Cc3ccccc3C2=O)cc(OC)c1OC` (configuration not stated), for which, under setting [1], the AC50 is 31.6 µM [falling, single point].

Consider `O=C1[C@H]2[C@@H](C(=O)N1c1cc(Cl)cc(Cl)c1)[C@]1(C(=O)Nc3ccccc31)N1CCC[C@@H]21`, for which, under setting [1], the AC50 was 10 µM [falling, partial curve].

Turning to `COc1ccc(C(=O)N2CCSC2=S)cc1OC`, the AC50 under setting [1] was 25.1 µM [falling, partial curve].

Take `CC(CC(=O)Nc1ccc(F)cc1)S(=O)(=O)c1cc2c3c(c1)CCN3C(=O)CC2` (configuration not stated): under setting [1], the AC50 is 25.1 µM [falling, partial curve].

On to `C[C@@H](/C=C\c1cccc(Oc2ccc(F)cc2)c1)N(O)C(N)=O`, for which, under setting [1], the AC50 is 39.8 µM [falling, single point].

For the molecule `Cc1cccc(N2CCN(c3nnnn3-c3ccccc3)CC2C)c1` (configuration not stated), the AC50 under setting [1] was 39.8 µM [falling, single point].

Turning to `CNc1ccc(-c2nc(-c3ccncc3)no2)cc1[N+](=O)[O-]`, under setting [1], the half-maximal activity concentration (AC50) is 39.8 µM [rising, partial curve].

For the molecule `CCOC(=O)N1CCN(C(=O)C(C)N(c2ccc(Oc3ccccc3)cc2)S(C)(=O)=O)CC1` (configuration not stated), the AC50 under setting [1] was 10 µM [falling, partial curve].

In the case of `Cc1ccc(CNc2cc(C)nc3nc(-c4ccc(C)cc4)nn23)cc1`, under setting [1], the AC50 was 7.94 µM [falling, single point].

With `CCc1ccc(O)c(N=Cc2ccccc2O)c1`, the half-maximal activity concentration (AC50) under setting [1] was 20 µM [rising, partial curve] [measured here: IkB-luc green channel].

Regarding `Cc1ccc(C)c(NC(=O)c2nc(S(=O)(=O)Cc3ccc(F)cc3)ncc2Cl)c1`, under setting [1], the AC50 was 7.94 µM [falling, full curve].

In the case of `Cc1ccsc1C(=O)OCc1csc(-c2ccccc2)n1`, under setting [1], the AC50 is 6.31 µM [falling, partial curve].

Turning to `CCc1ccccc1S(=O)(=O)Cc1ccc(C(=O)NCCc2ccc(Cl)cc2)o1`, under setting [1], the half-maximal activity concentration (AC50) is 10 µM [falling, partial curve].

For the molecule `COc1cccc(-c2cc(C(=O)NC3CCCC3)no2)c1`, the half-maximal activity concentration (AC50) under setting [1] was 3.98 µM [falling, full curve].

Turning to `CC(C)CCNc1nc(Nc2ccccc2)c2cnn(C)c2n1`, the AC50 under setting [1] is 20 µM [falling, partial curve].

On to `O=C(Cc1ccc(Cl)cc1)NCCc1csc2nc(-c3ccccc3F)nn12`, for which, under setting [1], the AC50 was 25.1 µM [falling, single point].

Consider `Cc1cc(F)ccc1Nc1nc2ccc(Cl)cc2n2cnnc12`, for which the AC50 under setting [1] is 0.126 µM [rising, full curve].

`CCOC(=O)c1ccc(-n2c(CCC(=O)O)ccc2-c2ccccc2)cc1O`: the AC50 under setting [1] was 12.6 µM [falling, partial curve].

On to `C=CCn1c(=O)c(C(=O)Nc2ccccc2C(=O)OCC)c(O)c2ccccc21`, for which the AC50 under setting [1] is 0.251 µM [falling, full curve].

Turning to `Cc1c(NC(=O)c2cccs2)cccc1-c1nc2cc(Cl)ccc2o1`, the concentration at half-maximal activity (AC50) under setting [1] is 10 µM [falling, partial curve].

As for `CCOc1ccc(NC(=O)c2nc(S(=O)(=O)Cc3ccccc3F)ncc2Cl)cc1`, under setting [1], the concentration at half-maximal activity (AC50) is 6.31 µM [falling, full curve].

For the molecule `COc1ccc(S(=O)(=O)n2nc(-c3ccco3)nc2NCc2ccc(C(C)C)cc2)cc1`, the concentration at half-maximal activity (AC50) under setting [1] is 3.16 µM [falling, partial curve].

Consider `COc1ccc(S(=O)(=O)NCc2cccn2Cc2cc(C)ccc2C)cc1OC`, for which the AC50 under setting [1] was 20 µM [falling, partial curve].

For `COc1ccc(-c2cc(-c3nc(-c4cc(OC)c(OC)c(OC)c4)no3)[nH]n2)c(OC)c1`, the AC50 under setting [1] was 3.98 µM [falling, full curve].

Consider `Cn1cc(-c2nc3cncnc3n(-c3ccccc3)c2=O)c2ccccc21`, for which the AC50 under setting [1] was 3.16 µM [falling, partial curve].

With `COc1ccc(CNC(=O)CCc2c(C)nc3cc(-c4ccc(OC)cc4OC)nn3c2C)cc1`, the AC50 under setting [1] is 0.501 µM [falling, full curve].

For the molecule `Cc1cccc(NC(=O)Cn2c(=O)n(CC3CCC(C(=O)NCCc4ccccc4)CC3)c(=O)c3ccccc32)c1` (configuration not stated), the AC50 under setting [1] is 3.16 µM [falling, single point].

For the molecule `CCOC(=O)c1cc(-c2ccc(F)cc2)n(CCC(=O)NC2CCC(C)CC2)c1C` (configuration not stated), under setting [1], the concentration at half-maximal activity (AC50) is 12.6 µM [falling, single point].

Regarding `Cc1ccc(OCCn2c(C3CC(=O)N(Cc4ccc(F)cc4)C3)nc3ccccc32)c(C)c1` (configuration not stated), under setting [1], the concentration at half-maximal activity (AC50) is 15.8 µM [falling, partial curve].

Take `COc1cc(C)c(C(C)C)cc1S(=O)(=O)n1cnc(C)c1`: the concentration at half-maximal activity (AC50) runs as follows: (measured here: IkB-luc green channel) 3.16 µM [rising, full curve]; (measured here: control luc red channel) 0.794 µM [rising, full curve, poor fit].

As to `Cc1cccc(N2CCN(c3nc4ccccc4c4nnc(C)n34)CC2)c1C`, the AC50 under setting [1] is 39.8 µM [falling, single point].

As for `COc1ccc(CNC(=O)Cn2cccc2C(=O)c2ccccc2C)cc1`, under setting [1], the AC50 is 15.8 µM [falling, partial curve].

As to `N#Cc1nc(-c2ccccc2F)oc1NC1CCCCC1`, the AC50 under setting [1] is 2 µM [rising, partial curve].

With `Cc1cccc(NC(=O)c2c(NC(=O)c3ccccc3)sc3c2CCC3)c1`, the AC50 under setting [1] was 0.158 µM [falling, full curve].

As to `COc1cc(NC(=O)Cc2noc3ccccc23)cc(OC)c1OC`, under setting [1], the AC50 was 15.8 µM [falling, partial curve].

In the case of `Cc1cccc(-n2ncc3c(NNC(=O)c4ccccc4Cl)ncnc32)c1`, under setting [1], the half-maximal activity concentration (AC50) is 1 µM [falling, full curve].

`O=c1[nH]c(C2CCCN(S(=O)(=O)c3ccccc3)C2)nc2c1nnn2Cc1ccccc1Br` (configuration not stated): the AC50 under setting [1] is 39.8 µM [falling, single point].

Turning to `Cc1ccc(C)c(Nc2nn3c(=O)c4ccc(C(=O)NCc5ccccc5)cc4nc3s2)c1`, the AC50 under setting [1] was 10 µM [falling, partial curve].

Take `Cc1cccc(C)c1NC(=O)Cn1cc(C(=O)C2CC2)c2ccccc21`: the AC50 under setting [1] is 6.31 µM [rising, single point].

As to `COc1cccc(C(=O)Nc2nnc(S(=O)(=O)N3CCCc4ccccc43)s2)c1`, the AC50 under setting [1] was 39.8 µM [falling, single point].

One may read the AC50 as the midpoint of the concentration-response curve, whichever way the signal moves.
